Test results as given in patent US20030203890A1 (priority 2001, published 2003).
pKi: −log10 of the molar value. Structures were worked out from names or drawings and are uncertain.

Protein sequences, listed by entry. Tags and fused reporters are not part of them.
UniProt P62942, whole entry: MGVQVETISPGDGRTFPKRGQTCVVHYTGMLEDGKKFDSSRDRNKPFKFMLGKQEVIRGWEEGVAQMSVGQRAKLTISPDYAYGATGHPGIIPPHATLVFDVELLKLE

Target: FKBP12 (Homo sapiens, UniProt P62942)
Experiment: K1 test procedure: inhibition of peptidyl-prolyl isomerase (rotamase) activity of FKBP12, chymotrypsin-coupled assay
Assay type: biochemical
Details: read-out: K1, apparent Ki, Table XLIII, Formulas XXV to XXIX

pKi: 7.70
SMILES: O=C(C(=O)N1CCC[C@H]1C(=O)OCCC(c1ccccc1)c1ccccc1)C1CCCCC1
